Measurements from publication PMC7853152.
These are yes or no findings as the source states them, for the method shown. In cells and extracts the contact can be indirect. Some entries that bind do so weakly or less than the wild type. For some assays here: Tags and fused reporters may be left off the sequences shown. Values belong to the molecule of their own block, whether it stands above or below them.

Chains of the proteins cited; added tags and fusions are not shown.
UniProt Q5SVQ0: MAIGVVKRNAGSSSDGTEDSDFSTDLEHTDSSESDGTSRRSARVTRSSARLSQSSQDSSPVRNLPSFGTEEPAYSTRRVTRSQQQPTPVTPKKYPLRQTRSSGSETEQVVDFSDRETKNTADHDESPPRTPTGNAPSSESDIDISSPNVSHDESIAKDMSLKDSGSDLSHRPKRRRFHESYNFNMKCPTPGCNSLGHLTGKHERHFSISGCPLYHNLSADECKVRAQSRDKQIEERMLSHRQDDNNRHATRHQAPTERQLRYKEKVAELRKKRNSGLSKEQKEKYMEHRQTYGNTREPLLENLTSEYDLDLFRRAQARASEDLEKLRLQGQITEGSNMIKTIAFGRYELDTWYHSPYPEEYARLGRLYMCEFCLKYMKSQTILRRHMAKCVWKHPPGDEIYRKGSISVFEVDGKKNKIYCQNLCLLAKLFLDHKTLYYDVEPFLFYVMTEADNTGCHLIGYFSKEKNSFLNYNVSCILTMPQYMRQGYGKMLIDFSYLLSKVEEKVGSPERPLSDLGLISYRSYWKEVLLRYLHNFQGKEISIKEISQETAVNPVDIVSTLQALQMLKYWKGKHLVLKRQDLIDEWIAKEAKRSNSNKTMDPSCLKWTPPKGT

Tests used:
[1] = target: Myst2 (source not stated) (UniProt Q5SVQ0); experiment: co-IP; lysates of Brpf3-overexpressing cells immunoprecipitated with anti-Myst2 antibody; western blot with anti-FLAG, anti-Huwe1 and anti-Myst2 antibodies
[2] = target: Myst2 (ectopically expressed in 293T cells) (UniProt Q5SVQ0); experiment: co-IP; proteins ectopically expressed in 293T cells (Supplementary Fig. S3); bait and tags not shown
[3] = target: Myst2 (endogenous, mESCs) (mouse (endogenous in mESCs)) (UniProt Q5SVQ0); experiment: co-IP; endogenous proteins in MG132 treated mESCs; immunoprecipitation with Myst2 antibody; western blot with anti-Myst2, anti-Brpf3 and Huwe1 antibodies
[4] = target: FLAG-tagged Myst2 (bait of the first step of the sequential immunoprecipitation) (UniProt Q5SVQ0); experiment: co-IP; sequential immunoprecipitation: first with anti-FLAG affinity gel, elution with 200 ng/µl 3XFLAG peptides, second with Brpf3 antibody and protein A beads
[5] = target: Myst2 (source not stated) (UniProt Q5SVQ0); experiment: co-IP; Brpf3 deletion mutants with Myst2 (Supplementary Fig. S4b); cells and bait not shown

Molecule: FLAG-tagged Brpf3 (wild type) (from UniProt B2KF05 1-1204)
binding [1]: binds
binding [2]: binds

B1: FLAG-tagged Brpf3-N127 (domain or fragment, UniProt B2KF05 1-127)
chain: MRKPRRKSRQNAEGRRSPSPYSLKCSPTRETLTYAQAQRIVEVDIDGRLHRISIYDPLKIITEDELTAQDITECNSNKENSEQPQFPAKSKKPSSKGKRKESCSKHASGTSFHLPQPSFRVVDTGSQ
binding [5]: binds

Second part, the molecule after the results:

binding [3]: binds
Molecule: Brpf3 (endogenous, mESCs) (from UniProt B2KF05 1-1204)

binding [4]: binds
Molecule: Brpf3 (in the sequential immunoprecipitation) (from UniProt B2KF05 1-1204)
